Source: patent US20030215852A1
Results are given in words; binding and its absence hold for the method and conditions named. Some entries that bind do so weakly or less than the wild type.

By UniProt entry, the sequences of proteins in these tests, tags left out. Where a name states a change or a piece, a line headed by the entry shows the natural chain unless it says otherwise.
UniProt Q92558: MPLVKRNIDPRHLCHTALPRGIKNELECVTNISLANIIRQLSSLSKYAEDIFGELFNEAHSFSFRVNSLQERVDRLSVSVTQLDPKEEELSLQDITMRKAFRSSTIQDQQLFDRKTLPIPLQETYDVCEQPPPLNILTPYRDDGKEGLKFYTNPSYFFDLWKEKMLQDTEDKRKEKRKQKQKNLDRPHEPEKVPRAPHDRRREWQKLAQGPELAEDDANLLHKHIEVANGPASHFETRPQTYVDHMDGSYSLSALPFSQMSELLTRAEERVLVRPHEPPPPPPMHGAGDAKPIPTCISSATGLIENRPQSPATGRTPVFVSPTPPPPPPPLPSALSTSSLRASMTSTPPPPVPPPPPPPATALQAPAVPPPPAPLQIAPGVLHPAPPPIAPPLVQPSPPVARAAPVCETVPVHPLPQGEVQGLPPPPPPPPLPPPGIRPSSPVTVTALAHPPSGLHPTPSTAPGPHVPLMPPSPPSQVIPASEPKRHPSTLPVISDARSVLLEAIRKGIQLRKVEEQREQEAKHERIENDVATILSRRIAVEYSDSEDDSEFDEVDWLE

Target: Pablo (pro-apoptotic Bcl-XL binding protein) (human) (UniProt Q92558)
Assay: yeast two-hybrid assay

binding: binds
B1: pancortin 2 (protein)
chain: MITNWMSQTLPSLVGLNTTKLSAAGGGTLDRSTGVLPTNPEESWQVYSSAQDSEGRCICTVVAPQQTMCSRDARTKQLRQLLEKVQNMSQSIEVLDRRTQRDLQYVEKMENQMKGLESKFKQVEESHKQHLARQFKG
